Values from PubChem BioAssay AID1259254 (NCATS, 2017)
Assay: 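Gene knock-downs that lead to re-replication, shown by excess G2 DNA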 (primary screen). Cell system: human HCT116 colorectal cancer cells. Reagents: single siRNA against human genes. Time to read-out: 3 days. Measured: 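Nuclei stained with Hoechst and imaged; cell-cycle phase assigned by DNA content; G2 share scaled per plate, non-targeting siRNA 0%, GMNN siRNA 100%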. Scale: G2 robust z-score and G2 cells, % of GMNN control: higher = more G2 cells, more excess DNA replication; raw share of cells in G2: higher = larger share of cells with G2 DNA content. Rule for the call: 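Active siRNAs have a G2 robust z of 5 or more median absolute deviations over the median, which in these data means about 38% or higher of GMNN control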.
This is an unselected part of about 59,000 deposited reagents. In the full data, about 1,550 (2.6%) got an active call. 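G2 share is only a proxy for re-replication; each gene was hit by three separate siRNAs, and active genes were retested.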 Raw values vary from plate to plate and are shown uncorrected. A number with no mark means an inactive call. The record does not give: the amount of reagent.

| gene knocked down | PubChem SID | G2 robust z-score | G2 cells, % of GMNN control | raw share of cells in G2 (%) |
| --- | --- | --- | --- | --- |
| PPFIBP2 | SID160720157 | 1.09 | 10.6 | 9.84 |
| PPFIBP2 | SID160720158 | 0.498 | 6.47 | 6.46 |
| PPFIBP2 | SID160720159 | -0.535 | -0.797 | 3.07 |
| CHI3L2 | SID160742767 | 0.0154 | 3.08 | 6.06 |
| CHI3L2 | SID160742778 | 0.0955 | 3.64 | 6.32 |
| CHI3L2 | SID160742789 | 1.58 | 14.1 | 8.95 |
| MYCBP2 | SID160735393 | -0.349 | 0.515 | 4.04 |
| MYCBP2 | SID160735394 | 0.587 | 7.09 | 6.53 |
| MYCBP2 | SID160735395 | -0.674 | -1.77 | 5.66 |
| PGS1 | SID160722333 | 1.1 | 10.7 | 9.1 |
| PGS1 | SID160722334 | -0.438 | -0.111 | 3.16 |
| PGS1 | SID160722335 | -0.418 | 0.0246 | 5.21 |
| NDUFS2 | SID160777897 | 2.31 | 19.2 | 12.8 |
| NDUFS2 | SID160777898 | -0.595 | -1.22 | 2.79 |
| NDUFS2 | SID160777899 | -0.0202 | 2.83 | 6.59 |
| NUBP1 | SID160777796 | -0.896 | -3.34 | 2.09 |
| NUBP1 | SID160777797 | -0.81 | -2.73 | 4.39 |
| NUBP1 | SID160777799 | -1.18 | -5.36 | 3.29 |
| SVIL | SID160717571 | -1.9 | -10.4 | 2.18 |
| SVIL | SID160717572 | -0.768 | -2.44 | 3.71 |
| SVIL | SID160717573 | -0.808 | -2.72 | 3.06 |
| DDX39B | SID160719479 | 0.0152 | 3.07 | 6.9 |
| DDX39B | SID160719480 | -0.922 | -3.52 | 3.32 |
| DDX39B | SID160719481 | -0.964 | -3.82 | 2.84 |
| MRPL15 | SID160739034 | -0.669 | -1.74 | 3.19 |
| MRPL15 | SID160739035 | 0.838 | 8.86 | 7.9 |
| MRPL15 | SID160739036 | 1.32 | 12.3 | 7.13 |
| ADH7 | SID160714576 | -0.911 | -3.44 | 3.85 |
| ADH7 | SID160714585 | -0.0565 | 2.57 | 4.95 |
| ADH7 | SID160714596 | -0.857 | -3.06 | 3.68 |
| LTB4R2 | SID160724480 | 0.331 | 5.3 | 6.37 |
| LTB4R2 | SID160731558 | -0.53 | -0.764 | 3.03 |
| LTB4R2 | SID160745040 | 3.4 | 26.9 | 15.5 |
| GALK1 | SID160768952 | -0.718 | -2.09 | 4.92 |
| GALK1 | SID160768963 | 0.237 | 4.64 | 6.97 |
| GALK1 | SID160768970 | 0.186 | 4.27 | 5.53 |
| PHB1 | SID160714236 | 3.53 | 27.8 | 16.8 |
| PHB1 | SID160714237 | 1.15 | 11 | 8.58 |
| PHB1 | SID160714238 | -0.695 | -1.92 | 2.66 |
| F11R | SID160739759 | -1.26 | -5.93 | 1.53 |
| F11R | SID160739760 | 0.379 | 5.64 | 6.33 |
| F11R | SID160739761 | -1.12 | -4.94 | 3.71 |
| ZNF579 | SID160724892 | 0.95 | 9.65 | 6.52 |
| ZNF579 | SID160724893 | -0.311 | 0.783 | 3.8 |
| ZNF579 | SID160759990 | -0.471 | -0.35 | 2.97 |
| CHI3L1 | SID160742734 | 0.232 | 4.6 | 5.68 |
| CHI3L1 | SID160742745 | 1.16 | 11.1 | 8.94 |
| CHI3L1 | SID160742757 | 0.254 | 4.76 | 6.73 |
| PPM1H | SID160746006 | -0.326 | 0.675 | 4.61 |
| PPM1H | SID160746007 | 1.14 | 11 | 9.72 |
| PPM1H | SID160746008 | -0.586 | -1.15 | 2.66 |
| CCER2 | SID160725658 | 0.795 | 8.56 | 6.35 |
| CCER2 | SID160725659 | -0.572 | -1.06 | 2.84 |
| CCER2 | SID160768951 | -0.14 | 1.98 | 4.39 |
| RSAD1 | SID160743516 | 4.97 | 37.9 | 18 |
| RSAD1 | SID160743517 | 3.94 | 30.7 | 17.1 |
| RSAD1 | SID160743518 | 6.25 (active) | 46.9 | 27 |
| FOCAD | SID160742481 | 1.68 | 14.8 | 8.91 |
| FOCAD | SID160742482 | 0.617 | 7.31 | 7.35 |
| FOCAD | SID160742483 | -0.428 | -0.0445 | 3.18 |
| FRMD3 | SID160762501 | -0.0442 | 2.66 | 4.54 |
| FRMD3 | SID160762502 | -0.532 | -0.777 | 2.86 |
| FRMD3 | SID160762503 | 4.12 | 31.9 | 13.4 |
| ZSCAN18 | SID160748353 | 1.94 | 16.6 | 8.66 |
| ZSCAN18 | SID160748355 | -1.24 | -5.78 | 3.3 |
| ZSCAN18 | SID160748356 | -0.583 | -1.14 | 3.28 |
| SRM | SID160717334 | -0.719 | -2.09 | 4.98 |
| SRM | SID160717335 | 1.89 | 16.3 | 9.35 |
| SRM | SID160731788 | 0.717 | 8.01 | 7.29 |

Records listed above with an active call (1):
| gene knocked down | PubChem SID | G2 robust z-score | G2 cells, % of GMNN control | raw share of cells in G2 (%) |
| --- | --- | --- | --- | --- |
| RSAD1 | SID160743518 | 6.25 (active) | 46.9 | 27 |
